From patent publication US12384749B2, “Onium salt of nitrogen-containing heteroaryl compound and pest control agent” (Nippon Soda Co., Ltd., priority 2019, dated 2025)
Some of these results come from one statement about several compounds together.

Test system: Tetranychus kanzawai
Test: Efficacy test against Tetranychus kanzawai (spray on mung bean)
Assay type: in vivo
Conditions: 125 ppm by mass sprayed on mung bean; female adults removed after four days; living number counted eleven days after spraying; 25° C., humidity 65%

Compound	control ratio [%]
C/C(=C\c1ccc(-c2ccc(C(F)(F)F)cc2)c(F)c1)C(=O)[N-][n+]1ccn(C)c1 [Compound A-47]	≥ 90
C/C(=C\c1ccc(-c2ccc(C(F)(F)F)cc2)c(F)c1)C(=O)[N-][n+]1cnn(C)c1 [Compound A-37]	≥ 90
O=C([N-][n+]1ccccn1)c1ccc(-c2ccc(OC(F)(F)C(F)F)cc2)c(F)c1 [Compound A-48]	≥ 90
Cn1cc[n+]([N-]C(=O)c2ccc(-c3ccc(OCC(F)(F)C(F)F)nc3)c(F)c2)c1 [Compound A-49]	≥ 90
Cn1cc[n+]([N-]C(=O)c2ccc(-c3ccc(OC(F)(F)C(F)F)cc3)c(F)c2)c1 [Compound A-50]	≥ 90
Cn1cc[n+]([N-]C(=O)/C(Cl)=C/c2ccc(-c3ccc(OC(F)(F)F)cc3)cc2F)c1 [Compound A-23]	≥ 90
